≈ marks a conversion by molar mass, not a printed value. Where two headings read alike, the source gives them in different places.
Legend:
[1] = female, in vivo, 1 mg/kg
[2] = system: 22Rv1 prostate cancer cells; experiment: Cytotoxicity MTS assay, 22Rv1; conditions: Homo sapiens
3T3 cells = experiment: Cytotoxicity, 3T3 mouse embryonic fibroblast cells; type: cell-based; conditions: NIH3T3
[3] = system: WPMY-1 prostate stromal cells; experiment: Cytotoxicity, WPMY-1 prostate stromal cells; type: cell-based; conditions: Homo sapiens

Compound | Cmax [1] [ng/mL] | IC50 ([2]; 22Rv1, 48 h, read-out: 22Rv1 IC50) [µg/mL] | IC50 ([2]; 22Rv1, 72 h, read-out: 22Rv1 IC50 after 72 hour treatment) [µg/mL] | IC50 (3T3 cells) [µg/mL] | IC50 [3] [µg/mL]
CCCCCC(=O)c1c(O)nc(OC)c(OC)c1O [Compound 16c, 1-(2,4-dihydroxy-5,6-dimethoxypyridin-3-yl)hexan-1-one] | 76.70 |  |  |  | 
CNC(=O)c1ccc(N2C(=S)N(c3ccc(C#N)c(C(F)(F)F)c3)C(=O)C2(C)C)cc1F [Enzalutamide, enzalutamide, reference compound] |  | 21 (≈ 45.2 µM) | 21 (≈ 45.2 µM) | 70.8 (≈ 152 µM) | 96.9 (≈ 209 µM)

— patent US20240166603A1, “Method of Treating Cancer With Atpenin A5 Derviatives” (Texas Tech University System, priority 2018, published 2024)
